The text below walks through data of the supplement of paper PMC12889115.

For this assay, the system named is Salmonella enterica serovar Typhimurium SL1344. The assay is described as follows: bacterial growth OD600 after 18 h with compound and polymyxin B; higher = more bacterial growth (less inhibition). The note with it: 50 µM, Mueller-Hinton broth.

Each structure is given as a SMILES string. This is one part of the list. These are raw signals, not scaled to a control.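 In the initial screen, polymyxin B was used at a concentration that permeabilizes Salmonella's outer membrane but not its inner membrane. Maximum growth was set by DMSO wells with or without polymyxin B. Since plates varied, data were ranked per plate, and compounds giving the lowest OD600 advanced as hits.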

In the case of `COc1ccccc1CCNC(=O)Cc1ccc(N2CCC(NC(C)c3nccs3)CC2)cc1` (stereo not given), the “bacterial growth OD600” value (polymyxin B 0.75 µg/mL) is 0.985.

For `COc1cc(NC(=O)CCC2CCCN(C3CCCCC3)C2)cc(OC)c1` (stereo not given), the “bacterial growth OD600” value (polymyxin B 1 µg/mL) came out at 0.737.

Take `COc1cccc(CC2CN(C(=O)CCn3nc(C)cc3C)CCO2)c1` (stereo not given): the “bacterial growth OD600” value (polymyxin B 0.75 µg/mL) worked out at 0.774.

With `CCOC(=O)C1CCCN(C(=O)c2cc(NC(=O)COC)c3c(c2)ncn3CCc2ccccc2)C1` (stereo not given), the “bacterial growth OD600” value (polymyxin B 0.75 µg/mL) is 0.803.

Turning to `Cc1ccccc1-n1ncc2c1CC(C)(C)CC2NC(=O)CCN1CCCCO1` (stereo not given), the “bacterial growth OD600” value (polymyxin B 1 µg/mL) came to 0.805.

For the compound `CN(Cc1cccc(O)c1)CC1CCCN(CCc2ccccc2F)C1` (stereo not given), the “bacterial growth OD600” value (polymyxin B 1 µg/mL) came out at 0.804.

`CC(C)N(Cc1nccn1C)C(=O)c1cn(Cc2ccccc2Cl)nn1`: the “bacterial growth OD600” value (polymyxin B 1 µg/mL) worked out at 0.978.

`C#Cc1cccc(C(=O)N2CCC3(CC2)c2ccccc2[C@@H](NC(=O)CC)[C@@H]3OCc2cccnc2)c1`: for the setting “polymyxin B 0.75 µg/mL”, the “bacterial growth OD600” value worked out at 0.816.

In the case of `C=CCNC(=O)N1CCC(N2CCCC(C(=O)NC3CC3)C2)CC1` (stereo not given), the “bacterial growth OD600” value (polymyxin B 0.75 µg/mL) was determined as 0.862.

In the case of `CCOC(=O)C1(C/C=C/c2ccccc2)CCCN(C(=O)c2cc(C)n(C)n2)C1` (stereo not given), where the note is “polymyxin B 0.75 µg/mL”, the “bacterial growth OD600” value was 0.44.

Turning to `COC(=O)c1ccc(CNC(=O)C2CCCN(c3nc(C)c4ccc(S(C)(=O)=O)cc4n3)C2)cc1` (stereo not given), the “bacterial growth OD600” value (polymyxin B 0.75 µg/mL) is 0.87.

For the compound `O=C(NC1CC(=O)N(C2CCCCCC2)C1)c1csnn1` (stereo not given), the “bacterial growth OD600” value (polymyxin B 1 µg/mL) is 0.939.

Take `COc1ccc(CN2CCc3[nH]ncc3C2)cc1OCC(O)CN1CCCCCCC1` (stereo not given): the “bacterial growth OD600” value (polymyxin B 0.75 µg/mL) amounted to 0.863.

For `CCS(=O)(=O)c1ncc(CN2CCCCC2CCOC)n1Cc1ccccc1` (stereo not given), where the note is “polymyxin B 1 µg/mL”, the “bacterial growth OD600” value turned out to be 0.965.

With `CO[C@H]1[C@H](NC(=O)c2ccsc2)c2ccccc2C12CCN(Cc1c(F)ccc(F)c1F)CC2`, where the note is “polymyxin B 0.75 µg/mL”, the “bacterial growth OD600” value was determined as 0.409.

With `Cc1nn(C)c(C)c1CCC(=O)N1CCc2[nH]nc(-c3ccccc3F)c2C1`, the “bacterial growth OD600” value (polymyxin B 0.75 µg/mL) amounted to 0.718.

With `COc1ccc(-n2ncc(C(C)NCc3ccc(Cl)c(F)c3)c2C)cc1` (stereo not given), where the note is “polymyxin B 0.75 µg/mL”, the “bacterial growth OD600” value worked out at 0.76.

`COCc1ccc(CN2CCCC(CCC(=O)Nc3ccc(OC)cc3C)C2)o1` (stereo not given): under “polymyxin B 1 µg/mL”, the “bacterial growth OD600” value was found to be 1.14.

On to `CCC1CCCCN1C(=O)c1cn(CCOC)cc(C(=O)NCC2(c3ccccc3)CCCC2)c1=O` (stereo not given), for which the “bacterial growth OD600” value (polymyxin B 0.75 µg/mL) was determined as 0.01.

For `COc1ccc(CN2C(=O)O[C@@H]3CN(C(=O)NC(C)C)C[C@@H]32)cc1OC`, the “bacterial growth OD600” value (polymyxin B 0.75 µg/mL) was 0.832.

With `Cc1ccccc1CCC1CCCN(C(=O)CCc2cnn(C)c2)C1` (stereo not given), the “bacterial growth OD600” value (polymyxin B 0.75 µg/mL) was 0.624.

Regarding `O=C(CCC1CCCN(C(=O)c2ccc(Oc3ccccc3)o2)C1)NC1CC1` (stereo not given), where the note is “polymyxin B 1 µg/mL”, the “bacterial growth OD600” value amounted to 0.945.

For the compound `CN(Cc1nc(CCc2ccccc2)no1)CC(O)c1ccccc1` (stereo not given), under “polymyxin B 1 µg/mL”, the “bacterial growth OD600” value turned out to be 0.893.

For `Cc1ncc2c(c1CNC(=O)Cc1ccsc1)CCN(C(=O)c1cccc(N3CCCC3=O)c1)C2`, the “bacterial growth OD600” value (polymyxin B 0.75 µg/mL) is 0.754.

As to `O=C(C1CCCC1)N1CCCC(N2CCN(c3ccccc3F)CC2)C1` (stereo not given), the “bacterial growth OD600” value (polymyxin B 1 µg/mL) turned out to be 0.836.

For `Cn1nccc1C(=O)NCC1Cc2cc(-c3cccc(OC(F)(F)F)c3)ccc2O1` (stereo not given), for the setting “polymyxin B 0.75 µg/mL”, the “bacterial growth OD600” value stood at 0.008.

On to `COC1CCCN(C(=O)c2cc(Cn3c(C)nc4ccccc43)[nH]n2)C1` (stereo not given), for which, where the note is “polymyxin B 1 µg/mL”, the “bacterial growth OD600” value was determined as 0.917.

For the compound `CC(=O)c1cccc(NC(=O)NC2CCCN(C3CCCCCC3)C2)c1` (stereo not given), the “bacterial growth OD600” value (polymyxin B 1 µg/mL) was determined as 0.93.

As for `CCN(CCO)c1ccc(-c2nc(Cc3ccc(Cl)cc3)no2)cn1`, the “bacterial growth OD600” value (polymyxin B 1 µg/mL) worked out at 0.007.

Regarding `Cc1nc(N2CCC(C(=O)N[C@@H](C)c3ccccc3)CC2)nc2cc(S(C)(=O)=O)ccc12`, the “bacterial growth OD600” value (polymyxin B 0.75 µg/mL) came out at 0.91.
